Values from PubChem BioAssay AID1259308 (NCATS, 2017)

- Aim: 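Candidate targets for better recombinant protein yield in mammalian cells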 (primary screen)
- System: human HEK293 embryonic kidney cells stably expressing firefly luciferase (HEK-CMV-Luc2-Hygro)
- Reagents: single siRNA against human genes, 0.8 pmol siRNA per well
- Time to read-out: 72 h
- Measured: 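Luciferase light (ONE-Glo) measured on one replicate plate set and viability (CellTiter-Glo) on the other, scaled to a negative control siRNA, with robust z-scores and luciferase per cell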
- Direction: total luciferase, z-score and total luciferase, % of control: higher = more reporter protein produced; luciferase per cell, z-score: higher = more reporter output per viable cell; viable cells, % of control: higher = more viable cells
- Hit rule: 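An siRNA counts as active if its total luciferase robust z-score exceeds 3; genes with two or more such siRNAs out of three were retested with fresh siRNAs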
- Meaning of the calls: active = raised luciferase; inactive = no rise
The whole screen tested about 59,000 reagents; below is an unselected part. Over the whole deposit, about 1,510 (2.6%) are marked active. 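Calls use total luciferase alone and ignore viability, so some active siRNAs may act by altering cell number.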 A number with no mark means an inactive call. The numbers tell different reagents against one gene apart.

no.	gene knocked down	reagent	total luciferase, z-score	total luciferase, % of control	luciferase per cell, z-score	viable cells, % of control
1	MGLL	1	1.2	106	1.76	74.2
2	MGLL	2	-0.671	68.5	-1.32	108
3	MGLL	3	0.782	97.4	1.2	79.5
4	IMPDH1	1	-1.03	61.3	0.148	65.9
5	IMPDH1	2	0.303	87.9	0.0262	97.6
6	IMPDH1	3	-0.328	75.4	-0.372	92.9
7	ZC3H8	1	-0.405	73.8	-0.388	91.4
8	ZC3H8	2	0.875	99.3	0.765	90.7
9	ZC3H8	3	0.543	92.7	-0.019	104
10	NOXO1	1	-0.856	64.9	-0.308	78.6
11	NOXO1	2	-0.494	72.1	0.14	77.6
12	NOXO1	3	0.75	96.8	0.75	88.8
13	ZNF625	1	0.422	90.3	0.905	79.5
14	ZNF625	2	-0.797	66	-0.846	92.2
15	ZNF625	3	0.731	96.4	0.612	91.7
16	WFDC12	1	-1.52	51.6	-1.57	87.3
17	WFDC12	2	-0.836	65.3	-0.563	84.6
18	WFDC12	3	-0.493	72.1	-1.06	107
19	DGAT1	1	0.8	97.8	1.22	79.4
20	DGAT1	2	0.261	87.1	0.0993	94.8
21	DGAT1	3	-0.235	77.2	-0.915	110
22	BATF2	1	-1.13	59.4	-1.36	94.9
23	BATF2	2	2.28	127	2.27	78.1
24	BATF2	3	0.00699	82	0.431	81.8
25	ZNF530	1	0.111	84.1	-0.136	97.4
26	ZNF530	2	-1.38	54.5	-1.42	88.5
27	ZNF530	3	-1.05	61	-1.45	99.9
28	WBP2NL	1	0.227	86.4	-0.214	102
29	WBP2NL	2	-0.0749	80.4	0.302	83
30	WBP2NL	3	-0.288	76.1	-0.131	88.1
31	CBX1	1	0.47	91.2	0.625	86.5
32	CBX1	2	-0.526	71.4	-0.83	99.3
33	CBX1	3	0.159	85.1	0.332	87.1
34	ZNF888	1	0.476	91.4	0.205	96.7
35	ZNF888	2	-0.473	72.5	-0.326	88.2
36	ZNF888	3	0.171	85.3	0.772	77.8
37	FBXO33	1	0.0704	83.3	-0.252	99.4
38	FBXO33	2	-0.726	67.4	-0.691	90.4
39	FBXO33	3	-0.651	68.9	-0.529	88.5
40	SFN	1	-0.0549	80.8	-0.285	97.3
41	SFN	2	-0.587	70.2	0.427	70.1
42	SFN	3	1.45	111	1.34	86.8
43	PRPF18	1	-1.03	61.3	0.368	62.2
44	PRPF18	2	-1.86	44.9	-0.458	56.7
45	PRPF18	3	-0.527	71.4	0.24	74.9
46	MED31	1	0.304	87.9	-0.241	105
47	MED31	2	-1.53	51.5	-0.97	74.2
48	MED31	3	-1.28	56.4	0.108	61.2
49	DGAT2	1	2.54	132	1.35	104
50	DGAT2	2	-0.957	62.9	-0.925	89.6
51	DGAT2	3	-1.34	55.2	-2.02	105
52	ZNF44	1	2.33	128	1.5	96.6
53	ZNF44	2	-0.419	73.6	0.424	73.5
54	ZNF44	3	0.928	100	0.287	104
55	CEP85L	1	-0.318	75.6	1.24	60.9
56	CEP85L	2	0.734	96.5	0.461	95.5
57	CEP85L	3	-1.7	48	-2.27	97.5

Records above whose target name starts with B or b (3):
gene knocked down	reagent	total luciferase, z-score	total luciferase, % of control	luciferase per cell, z-score	viable cells, % of control
BATF2	1	-1.13	59.4	-1.36	94.9
BATF2	2	2.28	127	2.27	78.1
BATF2	3	0.00699	82	0.431	81.8
